For some of these results: Construct, isoform or probe ends are uncertain for at least one entry. Whether high values mean tight binding is not given here for every scale.
Tests used:
Assay in all cases: electrochemical impedance spectroscopy (CNF-IL/PGE)
[1] = test system: activated protein C (APC) (human); settings: 5'-NH2 on strand 1, Solution-phase interaction (5 min; 1-5 min with AD22) in PBS or FBS diluted in PBS (1:2000 for selectivity), then 10 min immobilization on CNF-IL/PGE, EIS in redox probe, commercial protein
[2] = test system: thrombin (THR); settings: FBS:PBS 1:2000, 0.6 ug/mL protein, Rct 202.00 +/- 33.60 Ohm; 5'-NH2; Solution-phase interaction (5 min; 1-5 min with AD22) in PBS or FBS diluted in PBS (1:2000 for selectivity), then 10 min immobilization on CNF-IL/PGE; EIS in redox probe; commercial protein; single-stranded DNA; counted as no binding
[3] = molecular target: bovine serum albumin (BSA) (bovine) (UniProt P02769); settings: FBS:PBS 1:2000, 0.6 ug/mL protein, Rct 157 +/- 9.19 Ohm; 5'-NH2; Solution-phase interaction (5 min; 1-5 min with AD22) in PBS or FBS diluted in PBS (1:2000 for selectivity), then 10 min immobilization on CNF-IL/PGE; EIS in redox probe; commercial protein; single-stranded DNA; counted as no binding

## GCCTCCTAACTGAGCTGTACTCGACTTATCCCGGATGGGGCTCTTAGGAGGC / ATCCGGGATAAGTCGAGTACAG [DNA-Apt-AD22 aptamer-antidote pair]
[1]; artificial serum (FBS), 0.1 ug/mL aptamer, 0.1 ug/mL AD22, 0.6 ug/mL APC, Rct 295.75 +/- 18.41 Ohm
  binding signal (% Rct change vs DNA-Apt + APC): -23.2
[1]; buffer, 1 min interaction, Rct 292 +/- 55.76 Ohm, at 2 and 5 min Rct rose by 26.50% and 52.54%
  binding signal (% Rct change vs DNA-Apt + APC): -6.8

## GCCTCCTAACTGAGCTGTACTCGACTTATCCCGGATGGGGCTCTTAGGAGGC [DNA-Apt (HS02-52G)]
[2]
  binding signal (% Rct change vs DNA-Apt alone): -15.2
[3]
  binding signal (% Rct change vs DNA-Apt alone): -33.8

Reference: article PMC10136435
